Reference: the supplement of paper PMC10849652
The other results are listed elsewhere or left out.

Protein sequences, listed by entry. Tags and fused reporters are not part of them. Lines headed by an entry give the natural chain unless they say otherwise; changes in a name come on top.
UniProt Q9P2H3, whole entry, looked up: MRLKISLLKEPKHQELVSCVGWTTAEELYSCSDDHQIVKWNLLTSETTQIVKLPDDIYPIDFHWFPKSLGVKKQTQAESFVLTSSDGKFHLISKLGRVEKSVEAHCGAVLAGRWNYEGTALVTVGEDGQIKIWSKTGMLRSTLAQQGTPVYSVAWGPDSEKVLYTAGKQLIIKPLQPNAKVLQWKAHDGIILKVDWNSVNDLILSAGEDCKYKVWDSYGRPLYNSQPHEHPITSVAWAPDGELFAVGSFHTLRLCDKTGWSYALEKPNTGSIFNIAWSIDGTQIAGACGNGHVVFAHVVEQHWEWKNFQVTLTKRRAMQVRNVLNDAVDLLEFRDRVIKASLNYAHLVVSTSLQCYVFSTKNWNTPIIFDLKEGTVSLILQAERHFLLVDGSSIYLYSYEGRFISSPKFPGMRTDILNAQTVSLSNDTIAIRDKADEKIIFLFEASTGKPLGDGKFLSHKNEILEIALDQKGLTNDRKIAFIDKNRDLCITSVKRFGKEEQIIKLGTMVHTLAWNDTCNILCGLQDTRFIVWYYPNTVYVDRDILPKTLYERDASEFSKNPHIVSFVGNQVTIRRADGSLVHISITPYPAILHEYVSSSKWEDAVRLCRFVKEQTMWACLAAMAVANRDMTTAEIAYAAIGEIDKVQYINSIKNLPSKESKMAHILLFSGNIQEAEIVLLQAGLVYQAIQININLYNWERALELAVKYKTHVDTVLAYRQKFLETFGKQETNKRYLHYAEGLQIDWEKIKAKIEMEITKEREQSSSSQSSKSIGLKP
UniProt Q659A1: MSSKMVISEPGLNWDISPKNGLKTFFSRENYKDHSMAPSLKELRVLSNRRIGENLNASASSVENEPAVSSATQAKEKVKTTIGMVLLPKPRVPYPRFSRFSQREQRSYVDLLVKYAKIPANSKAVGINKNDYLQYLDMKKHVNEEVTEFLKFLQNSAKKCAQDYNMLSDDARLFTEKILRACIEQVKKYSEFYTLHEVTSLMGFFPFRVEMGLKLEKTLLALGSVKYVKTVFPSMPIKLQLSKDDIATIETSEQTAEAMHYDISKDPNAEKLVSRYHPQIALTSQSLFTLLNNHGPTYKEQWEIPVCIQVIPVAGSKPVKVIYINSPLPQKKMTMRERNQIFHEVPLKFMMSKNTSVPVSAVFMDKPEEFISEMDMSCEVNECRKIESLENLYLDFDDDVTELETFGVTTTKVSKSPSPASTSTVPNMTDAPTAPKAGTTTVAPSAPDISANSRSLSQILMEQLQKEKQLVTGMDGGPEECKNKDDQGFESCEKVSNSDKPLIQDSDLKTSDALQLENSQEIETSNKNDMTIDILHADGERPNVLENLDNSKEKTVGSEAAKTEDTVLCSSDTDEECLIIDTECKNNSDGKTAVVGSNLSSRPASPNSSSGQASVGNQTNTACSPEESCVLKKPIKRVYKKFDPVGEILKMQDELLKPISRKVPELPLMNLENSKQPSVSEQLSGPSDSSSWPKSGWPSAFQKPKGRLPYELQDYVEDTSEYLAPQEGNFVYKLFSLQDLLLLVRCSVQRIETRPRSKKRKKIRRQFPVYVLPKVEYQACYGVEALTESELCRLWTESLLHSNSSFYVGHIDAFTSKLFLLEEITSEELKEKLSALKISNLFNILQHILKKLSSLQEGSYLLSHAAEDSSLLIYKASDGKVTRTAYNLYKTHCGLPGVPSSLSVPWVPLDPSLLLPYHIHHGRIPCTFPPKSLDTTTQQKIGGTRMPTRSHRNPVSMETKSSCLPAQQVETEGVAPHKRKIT
UniProt P10809, whole entry, looked up: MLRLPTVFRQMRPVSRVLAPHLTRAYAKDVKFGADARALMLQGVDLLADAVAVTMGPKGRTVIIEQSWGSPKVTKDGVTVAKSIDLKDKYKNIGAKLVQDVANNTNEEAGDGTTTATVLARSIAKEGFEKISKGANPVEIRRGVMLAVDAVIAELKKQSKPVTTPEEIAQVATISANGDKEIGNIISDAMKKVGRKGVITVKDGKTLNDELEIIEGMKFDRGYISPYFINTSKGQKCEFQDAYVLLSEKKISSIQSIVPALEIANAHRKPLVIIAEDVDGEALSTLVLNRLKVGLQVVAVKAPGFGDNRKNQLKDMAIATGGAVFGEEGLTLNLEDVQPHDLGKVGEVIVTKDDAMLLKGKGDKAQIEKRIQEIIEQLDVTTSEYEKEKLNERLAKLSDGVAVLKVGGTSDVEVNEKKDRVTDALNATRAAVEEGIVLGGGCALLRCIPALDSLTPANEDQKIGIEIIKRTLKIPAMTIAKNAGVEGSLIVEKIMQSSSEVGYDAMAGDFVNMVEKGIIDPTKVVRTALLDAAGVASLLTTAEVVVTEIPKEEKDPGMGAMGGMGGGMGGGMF
UniProt P11142, whole entry, looked up: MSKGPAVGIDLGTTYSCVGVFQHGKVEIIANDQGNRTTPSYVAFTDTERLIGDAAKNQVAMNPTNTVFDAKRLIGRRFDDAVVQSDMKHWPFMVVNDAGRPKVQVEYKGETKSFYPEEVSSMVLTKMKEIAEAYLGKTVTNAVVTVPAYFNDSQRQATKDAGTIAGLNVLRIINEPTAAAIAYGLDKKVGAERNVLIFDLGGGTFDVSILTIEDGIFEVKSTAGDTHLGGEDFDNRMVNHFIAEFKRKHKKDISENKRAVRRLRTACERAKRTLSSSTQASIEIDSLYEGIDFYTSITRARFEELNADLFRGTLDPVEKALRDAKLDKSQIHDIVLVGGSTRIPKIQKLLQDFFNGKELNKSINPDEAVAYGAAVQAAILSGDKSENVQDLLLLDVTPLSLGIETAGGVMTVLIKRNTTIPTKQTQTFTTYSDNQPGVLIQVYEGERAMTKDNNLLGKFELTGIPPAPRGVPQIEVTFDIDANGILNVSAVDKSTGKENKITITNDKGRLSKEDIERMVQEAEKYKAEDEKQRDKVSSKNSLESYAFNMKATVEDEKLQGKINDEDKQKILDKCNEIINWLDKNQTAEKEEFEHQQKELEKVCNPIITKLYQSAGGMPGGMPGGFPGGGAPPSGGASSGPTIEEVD
UniProt P50213: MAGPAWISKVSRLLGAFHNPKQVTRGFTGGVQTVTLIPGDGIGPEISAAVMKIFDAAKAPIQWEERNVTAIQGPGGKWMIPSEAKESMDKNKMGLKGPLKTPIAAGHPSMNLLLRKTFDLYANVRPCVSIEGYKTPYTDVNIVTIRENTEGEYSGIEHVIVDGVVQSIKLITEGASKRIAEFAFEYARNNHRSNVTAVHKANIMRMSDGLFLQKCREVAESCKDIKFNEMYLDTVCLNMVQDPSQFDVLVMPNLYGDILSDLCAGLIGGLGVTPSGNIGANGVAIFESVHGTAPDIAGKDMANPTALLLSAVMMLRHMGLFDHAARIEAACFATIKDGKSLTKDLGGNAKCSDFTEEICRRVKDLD
UniProt Q9H6K1: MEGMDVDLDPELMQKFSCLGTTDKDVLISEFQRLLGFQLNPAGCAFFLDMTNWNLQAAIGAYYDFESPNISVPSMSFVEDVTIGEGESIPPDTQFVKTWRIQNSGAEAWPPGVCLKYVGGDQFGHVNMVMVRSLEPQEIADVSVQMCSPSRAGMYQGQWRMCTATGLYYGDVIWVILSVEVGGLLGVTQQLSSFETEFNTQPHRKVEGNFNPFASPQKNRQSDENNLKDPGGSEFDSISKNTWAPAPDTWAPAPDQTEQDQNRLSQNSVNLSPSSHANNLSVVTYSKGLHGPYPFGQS
UniProt Q96LB3: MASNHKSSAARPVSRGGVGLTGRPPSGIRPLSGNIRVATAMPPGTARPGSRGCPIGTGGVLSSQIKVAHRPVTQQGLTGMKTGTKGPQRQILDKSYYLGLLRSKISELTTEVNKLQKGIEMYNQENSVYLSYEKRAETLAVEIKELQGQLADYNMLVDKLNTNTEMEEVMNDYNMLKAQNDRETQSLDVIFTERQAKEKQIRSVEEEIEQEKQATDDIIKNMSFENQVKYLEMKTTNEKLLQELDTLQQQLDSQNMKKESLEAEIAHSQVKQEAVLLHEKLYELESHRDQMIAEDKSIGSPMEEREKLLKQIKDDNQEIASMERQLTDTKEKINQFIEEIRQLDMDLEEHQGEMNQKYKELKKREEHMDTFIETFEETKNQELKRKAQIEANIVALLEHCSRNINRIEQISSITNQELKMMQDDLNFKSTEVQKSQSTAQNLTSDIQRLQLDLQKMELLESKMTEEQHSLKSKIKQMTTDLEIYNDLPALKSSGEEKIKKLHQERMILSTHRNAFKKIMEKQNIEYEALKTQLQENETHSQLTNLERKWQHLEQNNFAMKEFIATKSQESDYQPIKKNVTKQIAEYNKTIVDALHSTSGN
UniProt Q9Y5U9: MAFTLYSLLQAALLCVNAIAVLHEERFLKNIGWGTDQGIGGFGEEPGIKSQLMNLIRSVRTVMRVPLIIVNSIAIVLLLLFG
UniProt Q9NZI8, whole entry, looked up: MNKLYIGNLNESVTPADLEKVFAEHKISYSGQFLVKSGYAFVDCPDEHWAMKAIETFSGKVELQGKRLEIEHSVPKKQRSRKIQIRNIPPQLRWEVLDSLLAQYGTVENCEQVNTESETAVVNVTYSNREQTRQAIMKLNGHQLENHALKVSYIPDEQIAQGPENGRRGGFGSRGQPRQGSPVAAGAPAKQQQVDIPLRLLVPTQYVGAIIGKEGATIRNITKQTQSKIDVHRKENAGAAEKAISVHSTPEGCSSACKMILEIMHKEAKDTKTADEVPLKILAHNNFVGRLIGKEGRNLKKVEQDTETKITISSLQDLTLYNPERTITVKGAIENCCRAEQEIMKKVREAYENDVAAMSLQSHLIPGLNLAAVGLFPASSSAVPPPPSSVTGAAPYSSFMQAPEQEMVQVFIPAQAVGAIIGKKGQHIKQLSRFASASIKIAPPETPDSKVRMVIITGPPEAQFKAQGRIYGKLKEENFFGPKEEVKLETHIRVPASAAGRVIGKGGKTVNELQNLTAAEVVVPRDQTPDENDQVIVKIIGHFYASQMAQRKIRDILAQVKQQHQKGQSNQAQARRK
UniProt Q13907: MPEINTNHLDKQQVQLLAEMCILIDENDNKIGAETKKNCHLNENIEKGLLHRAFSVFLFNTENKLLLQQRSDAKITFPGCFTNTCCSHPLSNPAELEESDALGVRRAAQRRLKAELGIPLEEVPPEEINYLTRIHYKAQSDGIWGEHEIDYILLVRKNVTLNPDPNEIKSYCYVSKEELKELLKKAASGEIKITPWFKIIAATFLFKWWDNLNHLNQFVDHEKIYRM
UniProt O00425, whole entry, looked up: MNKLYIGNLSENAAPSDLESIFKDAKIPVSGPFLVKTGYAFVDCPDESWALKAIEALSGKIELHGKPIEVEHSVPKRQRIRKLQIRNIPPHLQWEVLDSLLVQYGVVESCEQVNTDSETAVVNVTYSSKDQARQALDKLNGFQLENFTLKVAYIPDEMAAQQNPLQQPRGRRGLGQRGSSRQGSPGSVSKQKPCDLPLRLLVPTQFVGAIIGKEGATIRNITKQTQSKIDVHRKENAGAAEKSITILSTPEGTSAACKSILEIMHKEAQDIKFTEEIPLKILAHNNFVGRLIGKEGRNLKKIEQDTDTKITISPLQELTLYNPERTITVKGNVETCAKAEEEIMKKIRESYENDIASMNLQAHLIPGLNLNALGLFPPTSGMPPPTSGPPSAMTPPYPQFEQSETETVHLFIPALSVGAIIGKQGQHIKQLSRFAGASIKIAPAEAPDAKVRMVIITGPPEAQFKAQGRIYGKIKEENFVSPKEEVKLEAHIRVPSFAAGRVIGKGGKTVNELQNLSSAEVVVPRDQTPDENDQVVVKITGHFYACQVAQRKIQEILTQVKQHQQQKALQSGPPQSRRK
UniProt O14732: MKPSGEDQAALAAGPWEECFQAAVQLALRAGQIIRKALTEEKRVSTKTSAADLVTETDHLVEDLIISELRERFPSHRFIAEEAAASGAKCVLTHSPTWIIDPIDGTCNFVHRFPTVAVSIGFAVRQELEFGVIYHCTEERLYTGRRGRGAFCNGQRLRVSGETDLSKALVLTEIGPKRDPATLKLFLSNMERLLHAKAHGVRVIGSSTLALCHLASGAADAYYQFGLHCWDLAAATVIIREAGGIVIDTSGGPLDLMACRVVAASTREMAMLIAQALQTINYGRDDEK
UniProt Q12905: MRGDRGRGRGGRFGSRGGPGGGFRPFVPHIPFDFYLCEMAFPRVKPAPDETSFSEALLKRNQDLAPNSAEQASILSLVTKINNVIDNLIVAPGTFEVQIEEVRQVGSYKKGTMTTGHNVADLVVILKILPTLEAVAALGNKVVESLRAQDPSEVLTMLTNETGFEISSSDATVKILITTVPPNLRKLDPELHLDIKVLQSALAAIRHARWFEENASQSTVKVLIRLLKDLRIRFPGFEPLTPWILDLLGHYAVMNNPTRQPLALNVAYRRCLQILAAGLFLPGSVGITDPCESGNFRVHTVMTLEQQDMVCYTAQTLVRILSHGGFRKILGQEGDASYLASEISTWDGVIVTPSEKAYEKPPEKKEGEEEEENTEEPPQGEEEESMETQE

How the values were obtained:
Experiment in all cases: log2 fold change, soluble protein after heating vs DMSO (PISA); higher = thermal stabilisation; K562 lysate, 10 uM; active = over 0.2 and 3.5 SD of the protein, either way, in both replicates (recomputed)
[1] = compound: C1=CC=C(C=C1)[C@H](COC2=CC3=C(C=C2)NC(=O)N3)NC(=O)C4=CC=CN(C4=O)CC5=CC(=C(C=C5)F)F
Outline: (§1)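 The values are log-two fold changes in thermal stability compared with solvent controls and come from duplicates. They were obtained by TMTpro 16plex LC-MS/MS, with channel sums equalised, on the supernatant after 21,000xg for 90 min. That supernatant came from crude K562 extract at 1 mg/mL protein treated with 10 μM compound for 30 min, heated for 3 min across 48°C-58°C, pooled and brought to 0.5% NP-40 at 4°C.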

[2] = compound: CC1=C(SC2=C1C(=N[C@H](C3=NN=C(N32)C)CC(=O)N)C4=CC=C(C=C4)Cl)C
Outline: as §1

[3] = compound: CC1=C2C(=CC=C1)N=C(N(C2=O)C3=CC=CC=C3C)CN4C=NC5=C(N=CN=C54)N
Outline: as §1

[4] = compound: Cc1sc2c(c1C)C(c1ccc(Cl)cc1)=N[C@@H](CC(=O)OC(C)(C)C)c1nnc(C)n1-2
Outline: as §1

[5] = compound: c1ccc([C@@H]2C[C@H]2NC2CCNCC2)cc1
Outline: as §1

Measured: log2 fold change

HTATIP2 isoform 3 (UniProt Q9BUP3)
inactive: [1] -0.024 | [2] -0.005 | [3] 0.036 | [4] 0.006 | [5] 0.055

IFT80 isoform 3 (UniProt Q9P2H3)
inactive: [1] -0.056 | [2] 0.03 | [3] -0.126 | [4] -0.082 | [5] 0.042

ICE2 (UniProt Q659A1)
inactive: [1] 0.003 | [2] 0.02 | [3] -0.017 | [4] -0.004 | [5] -0.012

Two consecutive records out of the list so far:
HTATIP2 isoform 3 (UniProt Q9BUP3)
inactive: [1] -0.024 | [2] -0.005 | [3] 0.036 | [4] 0.006 | [5] 0.055

IFT80 isoform 3 (UniProt Q9P2H3)
inactive: [1] -0.056 | [2] 0.03 | [3] -0.126 | [4] -0.082 | [5] 0.042

(further entries)

INTS11 (UniProt Q5TA45)
inactive: [1] -0.019 | [2] -0.001 | [3] 0.04 | [4] 0.034 | [5] 0.042

IMPDH2 (UniProt P12268)
inactive: [1] 0 | [2] -0.014 | [3] -0.007 | [4] 0.045 | [5] 0.017

INPP5F (UniProt Q9Y2H2)
inactive: [1] -0.066 | [2] 0.115 | [3] 0.131 | [4] -0.144 | [5] -0.24

HSPD1 (UniProt P10809)
inactive: [1] -0.007 | [2] 0.019 | [3] -0.005 | [4] 0.002 | [5] -0.006

HYOU1 (UniProt Q9Y4L1)
inactive: [1] 0.014 | [2] 0.015 | [3] 0.004 | [4] -0.009 | [5] 0.005

IBTK (UniProt Q9P2D0)
inactive: [1] 0.001 | [2] -0.016 | [3] -0.026 | [4] 0.03 | [5] 0.055

HTT (UniProt P42858)
inactive: [1] 0.039 | [2] -0.088 | [3] 0.064 | [4] 0.066 | [5] -0.054

INPP5A (UniProt Q14642)
inactive: [1] -0.006 | [2] 0.043 | [3] 0 | [4] -0.228 | [5] -0.031

IDE, A0A3B3ISG5
inactive: [1] -0.009 | [2] -0.004 | [3] -0.006 | [4] -0.01 | [5] 0.03

HSPBP1 (UniProt Q9NZL4)
inactive: [1] 0.026 | [2] 0.013 | [3] 0.034 | [4] 0.004 | [5] -0.017

HSPA8 (UniProt P11142)
inactive: [1] 0.002 | [2] -0.014 | [3] -0.004 | [4] -0.004 | [5] 0.006

IDH3A isoform 2 (UniProt P50213)
inactive: [1] -0.017 | [2] 0.039 | [3] -0.029 | [4] -0.124 | [5] -0.119

ILRUN (UniProt Q9H6K1)
inactive: [1] 0.078 | [2] -0.021 | [3] 0.03 | [4] 0.009 | [5] 0.028

IKBKB (UniProt O14920)
inactive: [1] -0.006 | [2] -0.025 | [3] 0.01 | [4] 0.006 | [5] 0.068

IFT74 (UniProt Q96LB3)
inactive: [1] 0.028 | [2] 0.019 | [3] 0.06 | [4] -0.07 | [5] -0.108

IER3IP1 (UniProt Q9Y5U9)
inactive: [1] -0.038 | [2] -0.126 | [3] -0.009 | [4] -0.179 | [5] 0.039

IGF2BP1 (UniProt Q9NZI8)
inactive: [1] -0.015 | [2] 0.026 | [3] 0.028 | [4] 0.042 | [5] 0.012

IDI1 (UniProt Q13907)
inactive: [1] 0.018 | [2] -0.062 | [3] -0.015 | [4] 0.007 | [5] -0.081

IGF2BP3 (UniProt O00425)
inactive: [1] -0.02 | [2] 0.005 | [3] 0.009 | [4] 0.035 | [5] -0.002

IMMT (UniProt Q16891)
inactive: [1] -0.089 | [2] 0.016 | [3] 0.017 | [4] 0.022 | [5] 0.038

IMPDH2 (UniProt H0Y4R1)
inactive: [1] -0.048 | [2] 0 | [3] -0.077 | [4] -0.018 | [5] -0.203

IMPA2 (UniProt O14732)
inactive: [1] 0.035 | [2] 0.008 | [3] 0.056 | [4] -0.011 | [5] -0.075

ILF2 (UniProt Q12905)
inactive: [1] 0.023 | [2] 0.029 | [3] -0.008 | [4] 0.002 | [5] -0.012
